Assay results reported in the supplement of paper PMC8728848.
This is one part of the list.

What was measured:
Experiment in all cases: glycan array binding signal (z-score within array); higher = stronger binding
Conditions in all cases: glycan notation: IUPAC condensed, linker removed
[1] = target: Gal(b1-4)GalNAc(b1-3)[Fuc(a1-2)]Gal(b1-4)GlcNAc
Method in brief: (§1)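 From the Consortium for Functional Glycomics database, 3228 arrays were curated, keeping only those whose protein sequence was available. Binding is given as a within-array Z-score averaged across arrays sharing a protein sequence and across linkers. Negative Z-scores can be read as non-binding.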

[2] = target: Gal(b1-4)Glc
Method in brief: as §1

[3] = target: Gal(b1-4)Glc6S
Method in brief: as §1

[4] = target: Gal(b1-4)GlcNAc
Method in brief: as §1

[5] = target: Gal(b1-4)GlcNAc(a1-6)Gal(b1-4)GlcNAc
Method in brief: as §1

[6] = target: Gal(b1-4)GlcNAc(b1-2)Man
Method in brief: as §1

[7] = target: Gal(b1-4)GlcNAc(b1-2)Man(a1-3)Man(b1-4)GlcNAc(b1-4)GlcNAc
Method in brief: as §1

[8] = target: Gal(b1-4)GlcNAc(b1-2)Man(a1-3)[Gal(b1-4)GlcNAc(b1-2)Man(a1-6)]Man(b1-4)GlcNAc(b1-4)GlcNAc
Method in brief: as §1

[9] = target: Gal(b1-4)GlcNAc(b1-2)Man(a1-3)[Gal(b1-4)GlcNAc(b1-2)Man(a1-6)]Man(b1-4)GlcNAc(b1-4)[Fuc(a1-6)]GlcNAc
Method in brief: as §1

[10] = target: Gal(b1-4)GlcNAc(b1-2)Man(a1-3)[Gal(b1-4)GlcNAc(b1-2)Man(a1-6)][Gal(b1-4)GlcNAc(b1-4)]Man(b1-4)GlcNAc(b1-4)[Fuc(a1-6)]GlcNAc
Method in brief: as §1

[11] = target: Gal(b1-4)GlcNAc(b1-2)Man(a1-3)[Gal(b1-4)GlcNAc(b1-2)Man(a1-6)][GlcNAc(b1-4)]Man(b1-4)GlcNAc(b1-4)[Fuc(a1-6)]GlcNAc
Method in brief: as §1

[12] = target: Gal(b1-4)GlcNAc(b1-2)Man(a1-3)[GlcNAc(b1-2)Man(a1-6)]Man(b1-4)GlcNAc(b1-4)GlcNAc
Method in brief: as §1

[13] = target: Gal(b1-4)GlcNAc(b1-2)Man(a1-3)[GlcNAc(b1-4)][Gal(b1-4)GlcNAc(b1-2)Man(a1-6)]Man(b1-4)GlcNAc(b1-4)GlcNAc
Method in brief: as §1

[14] = target: Gal(b1-4)GlcNAc(b1-2)Man(a1-3)[Man(a1-6)]Man(b1-4)GlcNAc(b1-4)GlcNAc
Method in brief: as §1

[15] = target: Gal(b1-4)GlcNAc(b1-2)Man(a1-6)Man(b1-4)GlcNAc(b1-4)GlcNAc
Method in brief: as §1

[16] = target: Gal(b1-4)GlcNAc(b1-2)Man(a1-6)[GlcNAc(b1-2)Man(a1-3)]Man(b1-4)GlcNAc(b1-4)GlcNAc
Method in brief: as §1

[17] = target: Gal(b1-4)GlcNAc(b1-2)Man(a1-6)[Man(a1-3)]Man(b1-4)GlcNAc(b1-4)GlcNAc
Method in brief: as §1

[18] = target: Gal(b1-4)GlcNAc(b1-2)[Gal(b1-4)GlcNAc(b1-4)]Man(a1-3)[Gal(b1-4)GlcNAc(b1-2)Man(a1-6)]Man(b1-4)GlcNAc(b1-4)GlcNAc
Method in brief: as §1

[19] = target: Gal(b1-4)GlcNAc(b1-2)[Gal(b1-4)GlcNAc(b1-4)]Man(a1-3)[Gal(b1-4)GlcNAc(b1-2)[Gal(b1-4)GlcNAc(b1-6)]Man(a1-6)]Man(b1-4)GlcNAc(b1-4)GlcNAc
Method in brief: as §1

[20] = target: Gal(b1-4)GlcNAc(b1-2)[Gal(b1-4)GlcNAc(b1-4)]Man(a1-3)[GlcNAc(b1-4)][Gal(b1-4)GlcNAc(b1-2)Man(a1-6)]Man(b1-4)GlcNAc(b1-4)GlcNAc
Method in brief: as §1

[21] = target: Gal(b1-4)GlcNAc(b1-2)[Gal(b1-4)GlcNAc(b1-4)]Man(a1-3)[GlcNAc(b1-4)][Gal(b1-4)GlcNAc(b1-2)[Gal(b1-4)GlcNAc(b1-6)]Man(a1-6)]Man(b1-4)GlcNAc(b1-4)GlcNAc
Method in brief: as §1

[22] = target: Gal(b1-4)GlcNAc(b1-2)[Gal(b1-4)GlcNAc(b1-6)]Man(a1-6)[Gal(b1-4)GlcNAc(b1-2)Man(a1-3)]Man(b1-4)GlcNAc(b1-4)GlcNAc
Method in brief: as §1

[23] = target: Gal(b1-4)GlcNAc(b1-2)[Gal(b1-4)GlcNAc(b1-6)]Man(a1-6)[Gal(b1-4)GlcNAc(b1-2)Man(a1-3)]Man(b1-4)GlcNAc(b1-4)[Fuc(a1-6)]GlcNAc
Method in brief: as §1

[24] = target: Gal(b1-4)GlcNAc(b1-2)[Gal(b1-4)GlcNAc(b1-6)]Man(a1-6)[GlcNAc(b1-4)][Gal(b1-4)GlcNAc(b1-2)Man(a1-3)]Man(b1-4)GlcNAc(b1-4)GlcNAc
Method in brief: as §1

[25] = target: Gal(b1-4)GlcNAc(b1-2)[Gal(b1-4)GlcNAc(b1-6)]Man(a1-6)[GlcNAc(b1-4)][Gal(b1-4)GlcNAc(b1-2)[Gal(b1-4)GlcNAc(b1-4)]Man(a1-3)]Man(b1-4)GlcNAc(b1-4)[Fuc(a1-6)]GlcNAc
Method in brief: as §1

[26] = target: Gal(b1-4)GlcNAc(b1-3)Gal(b1-3)GalNAc
Method in brief: as §1

[27] = target: Gal(b1-4)GlcNAc(b1-3)Gal(b1-3)GlcNAc
Method in brief: as §1

[28] = target: Gal(b1-4)GlcNAc(b1-3)Gal(b1-4)Glc
Method in brief: as §1

[29] = target: Gal(b1-4)GlcNAc(b1-3)Gal(b1-4)GlcNAc
Method in brief: as §1

[30] = target: Gal(b1-4)GlcNAc(b1-3)Gal(b1-4)GlcNAc(b1-2)Man(a1-3)[Gal(b1-4)GlcNAc(b1-3)Gal(b1-4)GlcNAc(b1-2)Man(a1-6)]Man(b1-4)GlcNAc(b1-4)GlcNAc
Method in brief: as §1

[31] = target: Gal(b1-4)GlcNAc(b1-3)Gal(b1-4)GlcNAc(b1-2)Man(a1-3)[Gal(b1-4)GlcNAc(b1-3)Gal(b1-4)GlcNAc(b1-2)Man(a1-6)]Man(b1-4)GlcNAc(b1-4)[Fuc(a1-6)]GlcNAc
Method in brief: as §1

[32] = target: Gal(b1-4)GlcNAc(b1-3)Gal(b1-4)GlcNAc(b1-2)[Gal(b1-4)GlcNAc(b1-3)Gal(b1-4)GlcNAc(b1-6)]Man(a1-6)[Gal(b1-4)GlcNAc(b1-3)Gal(b1-4)GlcNAc(b1-2)Man(a1-3)]Man(b1-4)GlcNAc(b1-4)GlcNAc
Method in brief: as §1

[33] = target: Gal(b1-4)GlcNAc(b1-3)Gal(b1-4)GlcNAc(b1-2)[Gal(b1-4)GlcNAc(b1-3)Gal(b1-4)GlcNAc(b1-6)]Man(a1-6)[Gal(b1-4)GlcNAc(b1-3)Gal(b1-4)GlcNAc(b1-2)Man(a1-3)]Man(b1-4)GlcNAc(b1-4)[Fuc(a1-6)]GlcNAc
Method in brief: as §1

[34] = target: Gal(b1-4)GlcNAc(b1-3)Gal(b1-4)GlcNAc(b1-3)Gal(b1-4)GlcNAc
Method in brief: as §1

[35] = target: Gal(b1-4)GlcNAc(b1-3)Gal(b1-4)GlcNAc(b1-3)Gal(b1-4)GlcNAc(b1-2)Man(a1-3)[Gal(b1-4)GlcNAc(b1-3)Gal(b1-4)GlcNAc(b1-3)Gal(b1-4)GlcNAc(b1-2)Man(a1-6)]Man(b1-4)GlcNAc(b1-4)GlcNAc
Method in brief: as §1

[36] = target: Gal(b1-4)GlcNAc(b1-3)Gal(b1-4)GlcNAc(b1-3)Gal(b1-4)GlcNAc(b1-2)Man(a1-3)[Gal(b1-4)GlcNAc(b1-3)Gal(b1-4)GlcNAc(b1-3)Gal(b1-4)GlcNAc(b1-2)Man(a1-6)]Man(b1-4)GlcNAc(b1-4)[Fuc(a1-6)]GlcNAc
Method in brief: as §1

[37] = target: Gal(b1-4)GlcNAc(b1-3)Gal(b1-4)GlcNAc(b1-3)Gal(b1-4)GlcNAc(b1-2)[Gal(b1-4)GlcNAc(b1-3)Gal(b1-4)GlcNAc(b1-3)Gal(b1-4)GlcNAc(b1-6)]Man(a1-6)[Gal(b1-4)GlcNAc(b1-3)Gal(b1-4)GlcNAc(b1-3)Gal(b1-4)GlcNAc(b1-2)Man(a1-3)]Man(b1-4)GlcNAc(b1-4)[Fuc(a1-6)]GlcNAc
Method in brief: as §1

B1: Clec12b (Mus musculus), Q149M0 (protein)
chain: MSDEVTYATLMLQDSARVRGNQDGNNLRKEGHPAQSSLWRGAALSLMTLCLVLVTGLVTLATMFLQVSNDINSDSEKLSQLQKSIHPQQDNLSESLNSSRKSLTEESLQSQISALLERQEQMATKLCKEFLIHASDHKCNPCPKTWQWYGNSCYYFSINEEKSWSDSRKDCIDKNATLVKIDSTEERDLLQSQLSLTFSFFWLGLSWNSSGRNWLWEDGSFPPPTLFSDKELASFNGSRDCAYFERGNIYASRCSAEIPWICEKTASLVKTEDLD
- glycan array binding signal (z-score) [1]: -0.389
- glycan array binding signal (z-score) [2]: -0.157
- glycan array binding signal (z-score) [3]: -0.015
- glycan array binding signal (z-score) [4]: 0.054
- glycan array binding signal (z-score) [5]: -0.562
- glycan array binding signal (z-score) [6]: 0.16
- glycan array binding signal (z-score) [7]: -0.6
- glycan array binding signal (z-score) [8]: 0.242
- glycan array binding signal (z-score) [9]: -0.387
- glycan array binding signal (z-score) [10]: -0.592
- glycan array binding signal (z-score) [11]: 1.72
- glycan array binding signal (z-score) [12]: -0.528
- glycan array binding signal (z-score) [13]: -0.391
- glycan array binding signal (z-score) [14]: 0.251
- glycan array binding signal (z-score) [15]: 0.112
- glycan array binding signal (z-score) [16]: 0.017
- glycan array binding signal (z-score) [17]: -0.446
- glycan array binding signal (z-score) [18]: -0.64
- glycan array binding signal (z-score) [19]: 0.114
- glycan array binding signal (z-score) [20]: -0.111
- glycan array binding signal (z-score) [21]: 0.816
- glycan array binding signal (z-score) [22]: 0.531
- glycan array binding signal (z-score) [23]: 0.226
- glycan array binding signal (z-score) [24]: -0.128
- glycan array binding signal (z-score) [25]: 1.61
- glycan array binding signal (z-score) [26]: -0.206
- glycan array binding signal (z-score) [27]: -0.518
- glycan array binding signal (z-score) [28]: -0.432
- glycan array binding signal (z-score) [29]: -0.15
- glycan array binding signal (z-score) [30]: 0.387
- glycan array binding signal (z-score) [31]: -0.154
- glycan array binding signal (z-score) [32]: 0.532
- glycan array binding signal (z-score) [33]: 0.612
- glycan array binding signal (z-score) [34]: -0.352
- glycan array binding signal (z-score) [35]: 0.747
- glycan array binding signal (z-score) [36]: 0.125
- glycan array binding signal (z-score) [37]: 0.621
